Paper PMC8671480
Results are given in words; binding and its absence hold for the method and conditions named. Binding seen in cells or lysates may run through a third protein.

Biological target: T1, tumor necrosis factor receptor-associated protein 1 (TRAP1) (rat (endogenous in H9C2 and in rat heart tissue)) (UniProt Q5XHZ0)
T1 sequence: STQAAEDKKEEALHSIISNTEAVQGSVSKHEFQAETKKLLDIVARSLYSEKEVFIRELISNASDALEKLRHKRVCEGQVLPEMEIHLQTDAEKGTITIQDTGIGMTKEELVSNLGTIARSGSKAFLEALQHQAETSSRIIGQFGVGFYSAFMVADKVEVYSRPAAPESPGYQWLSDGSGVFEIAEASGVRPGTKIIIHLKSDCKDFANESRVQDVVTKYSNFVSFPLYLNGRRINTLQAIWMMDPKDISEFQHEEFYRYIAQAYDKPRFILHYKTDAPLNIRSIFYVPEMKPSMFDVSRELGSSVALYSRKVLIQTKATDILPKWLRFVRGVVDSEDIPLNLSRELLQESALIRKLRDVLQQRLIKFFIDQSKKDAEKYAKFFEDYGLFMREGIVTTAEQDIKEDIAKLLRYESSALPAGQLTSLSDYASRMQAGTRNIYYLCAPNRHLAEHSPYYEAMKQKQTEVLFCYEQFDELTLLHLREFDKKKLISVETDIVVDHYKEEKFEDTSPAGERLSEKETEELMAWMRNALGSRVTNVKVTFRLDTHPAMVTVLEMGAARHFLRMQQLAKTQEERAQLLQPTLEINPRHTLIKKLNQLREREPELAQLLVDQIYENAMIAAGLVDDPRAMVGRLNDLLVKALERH
Experiment: co-IP; H9C2 lysate (500 μg total protein) with anti-TRAP1 or anti-MIC60 on protein A/G magnetic beads, 4 °C, 6 h, washed with PBST (PBS, 0.5% Triton X-100); Western blot

With VDAC (rat (endogenous in H9C2)) the binding was “no binding”.
